Measured values from publication PMC4627417.

By UniProt entry, the sequences of proteins in these tests, tags left out.
UniProt P17844: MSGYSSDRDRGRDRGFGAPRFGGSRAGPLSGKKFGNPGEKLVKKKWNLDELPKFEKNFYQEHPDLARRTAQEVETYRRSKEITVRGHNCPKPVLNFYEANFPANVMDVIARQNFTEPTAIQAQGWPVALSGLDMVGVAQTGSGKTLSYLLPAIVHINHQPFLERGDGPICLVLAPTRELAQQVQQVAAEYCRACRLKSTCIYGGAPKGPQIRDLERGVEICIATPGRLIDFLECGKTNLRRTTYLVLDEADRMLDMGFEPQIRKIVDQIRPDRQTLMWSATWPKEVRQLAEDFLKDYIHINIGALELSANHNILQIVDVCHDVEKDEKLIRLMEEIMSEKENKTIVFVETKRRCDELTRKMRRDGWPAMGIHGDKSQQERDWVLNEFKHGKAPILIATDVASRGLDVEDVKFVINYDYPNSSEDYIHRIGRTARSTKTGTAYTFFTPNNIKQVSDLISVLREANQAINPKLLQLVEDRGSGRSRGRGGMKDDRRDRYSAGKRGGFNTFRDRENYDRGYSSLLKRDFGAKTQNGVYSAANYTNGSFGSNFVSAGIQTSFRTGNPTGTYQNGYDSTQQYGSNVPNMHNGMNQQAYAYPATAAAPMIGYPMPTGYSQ
UniProt P49790: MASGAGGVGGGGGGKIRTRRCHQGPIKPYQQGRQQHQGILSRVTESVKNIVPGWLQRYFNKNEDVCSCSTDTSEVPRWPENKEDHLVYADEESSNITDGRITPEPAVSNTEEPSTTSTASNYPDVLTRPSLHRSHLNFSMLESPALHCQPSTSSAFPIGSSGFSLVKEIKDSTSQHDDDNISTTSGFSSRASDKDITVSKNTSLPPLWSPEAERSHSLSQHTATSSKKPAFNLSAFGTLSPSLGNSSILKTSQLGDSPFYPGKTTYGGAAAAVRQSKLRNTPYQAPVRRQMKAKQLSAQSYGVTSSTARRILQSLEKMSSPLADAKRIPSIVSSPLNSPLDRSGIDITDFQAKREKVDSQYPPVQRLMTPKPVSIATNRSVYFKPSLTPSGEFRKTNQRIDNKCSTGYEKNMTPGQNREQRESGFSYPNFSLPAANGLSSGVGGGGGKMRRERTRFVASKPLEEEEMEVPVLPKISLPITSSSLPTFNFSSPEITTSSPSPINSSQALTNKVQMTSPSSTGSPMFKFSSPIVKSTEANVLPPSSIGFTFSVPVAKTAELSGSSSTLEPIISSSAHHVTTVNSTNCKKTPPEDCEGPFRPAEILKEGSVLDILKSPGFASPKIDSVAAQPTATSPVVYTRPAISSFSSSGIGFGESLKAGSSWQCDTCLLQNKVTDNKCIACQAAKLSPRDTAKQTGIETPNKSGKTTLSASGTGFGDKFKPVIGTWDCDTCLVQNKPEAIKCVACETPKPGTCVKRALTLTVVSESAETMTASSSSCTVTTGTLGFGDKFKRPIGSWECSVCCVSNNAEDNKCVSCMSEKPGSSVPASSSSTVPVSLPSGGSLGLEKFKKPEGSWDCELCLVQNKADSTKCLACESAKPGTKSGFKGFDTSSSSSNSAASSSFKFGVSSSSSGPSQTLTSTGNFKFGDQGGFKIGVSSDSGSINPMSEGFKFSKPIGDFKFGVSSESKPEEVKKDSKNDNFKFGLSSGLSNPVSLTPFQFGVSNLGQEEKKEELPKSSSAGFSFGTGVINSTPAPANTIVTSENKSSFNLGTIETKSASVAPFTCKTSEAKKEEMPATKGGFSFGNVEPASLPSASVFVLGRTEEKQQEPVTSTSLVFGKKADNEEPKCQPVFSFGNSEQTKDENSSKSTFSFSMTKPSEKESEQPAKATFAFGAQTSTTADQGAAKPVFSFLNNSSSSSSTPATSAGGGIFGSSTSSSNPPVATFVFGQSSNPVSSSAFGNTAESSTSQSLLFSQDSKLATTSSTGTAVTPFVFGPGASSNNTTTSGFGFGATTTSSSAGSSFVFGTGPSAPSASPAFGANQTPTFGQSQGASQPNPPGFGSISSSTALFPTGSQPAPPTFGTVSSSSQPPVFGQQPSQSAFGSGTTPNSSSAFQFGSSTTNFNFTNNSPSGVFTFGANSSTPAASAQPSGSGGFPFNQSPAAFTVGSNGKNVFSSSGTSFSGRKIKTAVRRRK
UniProt Q15365: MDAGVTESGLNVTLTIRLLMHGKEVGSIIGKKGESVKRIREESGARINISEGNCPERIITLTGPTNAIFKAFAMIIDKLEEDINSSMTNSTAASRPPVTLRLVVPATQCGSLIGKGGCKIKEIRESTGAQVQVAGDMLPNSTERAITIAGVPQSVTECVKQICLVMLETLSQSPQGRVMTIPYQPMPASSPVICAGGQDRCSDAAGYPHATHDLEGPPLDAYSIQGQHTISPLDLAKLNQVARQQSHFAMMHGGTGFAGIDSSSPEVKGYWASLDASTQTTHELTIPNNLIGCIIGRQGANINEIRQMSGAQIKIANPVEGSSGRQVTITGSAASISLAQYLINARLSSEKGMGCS
UniProt Q9Y265: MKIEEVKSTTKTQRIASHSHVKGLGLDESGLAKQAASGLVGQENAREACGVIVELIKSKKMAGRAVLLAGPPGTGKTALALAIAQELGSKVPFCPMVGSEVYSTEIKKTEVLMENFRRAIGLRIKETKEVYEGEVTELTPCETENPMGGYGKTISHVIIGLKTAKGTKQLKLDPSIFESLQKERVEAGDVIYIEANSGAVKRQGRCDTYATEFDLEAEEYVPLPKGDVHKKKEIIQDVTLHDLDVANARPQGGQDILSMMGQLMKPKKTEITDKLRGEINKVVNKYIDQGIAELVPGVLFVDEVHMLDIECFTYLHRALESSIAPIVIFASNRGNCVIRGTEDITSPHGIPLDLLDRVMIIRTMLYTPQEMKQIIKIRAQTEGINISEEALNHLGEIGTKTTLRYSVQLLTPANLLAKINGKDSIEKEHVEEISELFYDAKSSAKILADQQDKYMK
UniProt Q15393: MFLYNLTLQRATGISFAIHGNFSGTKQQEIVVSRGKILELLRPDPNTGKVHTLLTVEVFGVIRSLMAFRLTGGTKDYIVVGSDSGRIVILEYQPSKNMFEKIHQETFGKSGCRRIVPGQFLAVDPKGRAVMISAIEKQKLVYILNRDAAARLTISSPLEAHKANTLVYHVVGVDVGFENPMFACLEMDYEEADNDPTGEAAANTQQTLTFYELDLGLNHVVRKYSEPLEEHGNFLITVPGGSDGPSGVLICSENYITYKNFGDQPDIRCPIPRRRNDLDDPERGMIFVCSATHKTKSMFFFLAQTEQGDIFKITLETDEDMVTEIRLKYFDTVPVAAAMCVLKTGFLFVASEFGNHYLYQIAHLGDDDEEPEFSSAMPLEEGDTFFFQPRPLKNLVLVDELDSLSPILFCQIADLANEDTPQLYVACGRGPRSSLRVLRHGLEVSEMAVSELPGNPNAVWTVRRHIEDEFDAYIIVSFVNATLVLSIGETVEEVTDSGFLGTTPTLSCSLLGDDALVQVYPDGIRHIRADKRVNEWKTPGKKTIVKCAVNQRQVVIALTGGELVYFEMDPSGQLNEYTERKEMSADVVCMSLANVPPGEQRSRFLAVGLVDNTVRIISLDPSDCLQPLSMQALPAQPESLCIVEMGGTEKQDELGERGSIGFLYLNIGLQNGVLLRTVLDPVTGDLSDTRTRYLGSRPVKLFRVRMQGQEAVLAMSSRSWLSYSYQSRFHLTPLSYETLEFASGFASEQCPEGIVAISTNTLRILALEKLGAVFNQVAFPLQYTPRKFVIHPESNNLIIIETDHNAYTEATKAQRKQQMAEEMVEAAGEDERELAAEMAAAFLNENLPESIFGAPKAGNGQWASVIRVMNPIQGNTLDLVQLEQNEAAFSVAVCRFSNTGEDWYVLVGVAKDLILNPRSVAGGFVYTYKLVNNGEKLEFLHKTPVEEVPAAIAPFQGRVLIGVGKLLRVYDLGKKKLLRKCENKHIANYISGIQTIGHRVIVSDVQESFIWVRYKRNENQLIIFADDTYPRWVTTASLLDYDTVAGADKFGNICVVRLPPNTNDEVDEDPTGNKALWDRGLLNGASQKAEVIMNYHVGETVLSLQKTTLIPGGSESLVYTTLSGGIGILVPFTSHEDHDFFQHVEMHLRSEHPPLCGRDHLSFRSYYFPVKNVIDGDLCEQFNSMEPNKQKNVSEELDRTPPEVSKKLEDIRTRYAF
UniProt P09012: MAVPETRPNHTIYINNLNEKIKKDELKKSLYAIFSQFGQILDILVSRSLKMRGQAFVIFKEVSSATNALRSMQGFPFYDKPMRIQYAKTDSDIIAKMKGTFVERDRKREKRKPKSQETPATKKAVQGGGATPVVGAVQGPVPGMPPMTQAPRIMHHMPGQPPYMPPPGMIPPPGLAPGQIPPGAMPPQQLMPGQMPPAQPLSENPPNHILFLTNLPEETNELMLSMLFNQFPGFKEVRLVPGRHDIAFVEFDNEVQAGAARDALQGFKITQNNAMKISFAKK
UniProt P62316: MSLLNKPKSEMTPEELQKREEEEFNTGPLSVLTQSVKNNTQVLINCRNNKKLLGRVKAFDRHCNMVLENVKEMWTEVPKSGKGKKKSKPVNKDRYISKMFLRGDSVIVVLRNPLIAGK
UniProt P62308: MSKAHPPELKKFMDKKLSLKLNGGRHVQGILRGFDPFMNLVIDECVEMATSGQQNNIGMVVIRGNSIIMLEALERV
UniProt Q14966: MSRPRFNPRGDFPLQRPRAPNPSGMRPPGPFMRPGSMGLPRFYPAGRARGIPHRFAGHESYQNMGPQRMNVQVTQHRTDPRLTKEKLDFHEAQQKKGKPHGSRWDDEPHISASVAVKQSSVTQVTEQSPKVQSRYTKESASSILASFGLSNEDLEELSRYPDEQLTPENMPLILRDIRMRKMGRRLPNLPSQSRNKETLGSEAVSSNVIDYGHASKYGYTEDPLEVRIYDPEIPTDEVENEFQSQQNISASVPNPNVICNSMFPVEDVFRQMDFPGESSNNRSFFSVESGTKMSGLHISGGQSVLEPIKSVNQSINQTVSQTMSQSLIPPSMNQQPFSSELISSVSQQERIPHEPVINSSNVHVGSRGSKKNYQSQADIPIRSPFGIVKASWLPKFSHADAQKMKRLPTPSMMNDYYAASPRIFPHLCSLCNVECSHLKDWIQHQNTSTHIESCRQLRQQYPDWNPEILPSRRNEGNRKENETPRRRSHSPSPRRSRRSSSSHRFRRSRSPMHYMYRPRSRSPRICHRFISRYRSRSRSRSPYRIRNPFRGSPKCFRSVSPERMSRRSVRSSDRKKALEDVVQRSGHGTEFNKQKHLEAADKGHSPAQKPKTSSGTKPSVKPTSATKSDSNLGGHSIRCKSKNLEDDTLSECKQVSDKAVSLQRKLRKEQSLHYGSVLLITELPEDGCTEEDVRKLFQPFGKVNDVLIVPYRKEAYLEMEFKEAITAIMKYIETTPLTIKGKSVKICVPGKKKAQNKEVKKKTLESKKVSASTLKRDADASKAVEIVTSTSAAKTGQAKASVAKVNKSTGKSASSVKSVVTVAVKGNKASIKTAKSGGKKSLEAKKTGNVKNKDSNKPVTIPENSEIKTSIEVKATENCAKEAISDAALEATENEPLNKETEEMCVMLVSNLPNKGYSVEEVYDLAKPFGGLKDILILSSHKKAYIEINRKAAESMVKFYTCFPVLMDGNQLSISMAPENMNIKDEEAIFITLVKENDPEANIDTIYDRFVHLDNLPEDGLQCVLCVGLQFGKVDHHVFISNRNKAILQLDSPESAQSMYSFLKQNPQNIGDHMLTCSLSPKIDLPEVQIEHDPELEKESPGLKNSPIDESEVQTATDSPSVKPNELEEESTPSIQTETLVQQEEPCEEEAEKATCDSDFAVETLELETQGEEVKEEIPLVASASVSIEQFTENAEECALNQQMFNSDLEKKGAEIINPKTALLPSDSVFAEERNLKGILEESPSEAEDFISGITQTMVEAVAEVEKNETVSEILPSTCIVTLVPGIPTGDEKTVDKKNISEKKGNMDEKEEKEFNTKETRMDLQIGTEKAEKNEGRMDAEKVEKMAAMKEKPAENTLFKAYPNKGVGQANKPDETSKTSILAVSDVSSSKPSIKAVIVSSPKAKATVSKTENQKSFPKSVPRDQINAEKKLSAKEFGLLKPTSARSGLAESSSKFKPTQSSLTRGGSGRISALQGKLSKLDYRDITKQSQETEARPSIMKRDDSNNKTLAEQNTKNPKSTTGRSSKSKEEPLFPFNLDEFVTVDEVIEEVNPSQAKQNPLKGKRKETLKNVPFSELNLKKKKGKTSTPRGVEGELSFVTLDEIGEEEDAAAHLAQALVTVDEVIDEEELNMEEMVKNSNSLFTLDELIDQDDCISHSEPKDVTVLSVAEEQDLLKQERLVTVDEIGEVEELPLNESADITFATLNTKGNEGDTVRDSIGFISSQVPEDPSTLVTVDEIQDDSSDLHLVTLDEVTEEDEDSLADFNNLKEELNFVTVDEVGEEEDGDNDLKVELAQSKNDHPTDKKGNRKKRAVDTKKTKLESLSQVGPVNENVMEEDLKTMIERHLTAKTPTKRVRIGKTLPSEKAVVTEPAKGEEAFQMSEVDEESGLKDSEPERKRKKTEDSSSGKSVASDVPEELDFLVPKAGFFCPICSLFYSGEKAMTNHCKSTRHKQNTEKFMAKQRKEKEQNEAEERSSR

Target: 3XMyc-RPRD1B wild type (full length) (human) (UniProt Q9NQG5)
Test: affinity purification with mass spectrometry; SILAC: tetracycline-induced 3XMyc-RPRD1B WT (heavy) and MT (light) in 293 Flp-In cells, anti-Myc immunoprecipitates from total lysate combined and analysed by MS

Substance | binding
CNOT1 (from UniProt A5YKK6 1-2376) | binds
DDX3X (from UniProt O00571 1-662) | binds
DDX5 (HEK293) (from UniProt P17844 1-614) | binds
DDX17 (from UniProt Q92841 1-729) | binds
DPF2 (from UniProt Q92785 1-391) | binds
EIF2C1 (from UniProt Q9UL18 1-857) | binds
EIF2C2 (from UniProt Q9UKV8 1-859) | binds
EIF2C3 (from UniProt Q9H9G7 1-860) | binds
GTF2I (from UniProt P78347 1-998) | binds
HIST1H1A (from UniProt Q02539 1-215) | binds
HMGA1 (from UniProt P17096 1-107) | binds
NOLC1 (from UniProt Q14978 1-699) | binds
NUP98 (from UniProt P52948 1-880) | binds
NUP153 (from UniProt P49790 1-1475) | binds
PCBP1 (from UniProt Q15365 1-356) | binds
PCF11 (from UniProt O94913 1-1555) | binds
RPLP2 (from UniProt P05387 1-115) | binds
RUVBL1 (from UniProt Q9Y265 1-456) | binds
SF3B3 (from UniProt Q15393 1-1217) | binds
SMARCC1 (from UniProt Q92922 1-1105) | binds
SNRNP70 (from UniProt P08621 1-437) | binds
SNRPA (from UniProt P09012 1-282) | binds
SNRPD2 (from UniProt P62316 1-118) | binds
SNRPG (from UniProt P62308 1-76) | binds
TNRC6B (from UniProt Q9UPQ9 1-1833) | binds
TNRC6C (from UniProt Q9HCJ0 1-1936) | binds
TP53 (from UniProt P04637 1-393) | binds
ZNF638 (from UniProt Q14966 1-1978) | binds

No constants are given. Whether binding was seen depends on the method and setting. In cells and extracts the contact can be indirect. A yes stands for co-enrichment or nearness to the bait. Other partners may have been found. Tags and fused reporters may be left off the sequences shown.
